Assay results from patent US20260234099A1, “Endocannabinoid ligands and related analogs” (Northeastern University, priority 2023, published 2026).

Protein sequences, listed by entry. Tags and fused reporters are not part of them.
UniProt P34972, whole entry: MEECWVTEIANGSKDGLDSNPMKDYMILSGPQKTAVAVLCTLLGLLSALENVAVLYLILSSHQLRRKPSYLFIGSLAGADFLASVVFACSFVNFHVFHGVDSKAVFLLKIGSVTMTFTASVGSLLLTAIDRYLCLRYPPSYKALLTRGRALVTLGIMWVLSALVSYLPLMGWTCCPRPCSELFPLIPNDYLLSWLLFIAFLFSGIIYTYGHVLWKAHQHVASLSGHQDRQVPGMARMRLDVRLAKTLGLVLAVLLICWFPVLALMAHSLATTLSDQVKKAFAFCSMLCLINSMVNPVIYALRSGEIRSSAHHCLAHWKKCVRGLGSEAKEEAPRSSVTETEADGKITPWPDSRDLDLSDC
UniProt P20272, whole entry: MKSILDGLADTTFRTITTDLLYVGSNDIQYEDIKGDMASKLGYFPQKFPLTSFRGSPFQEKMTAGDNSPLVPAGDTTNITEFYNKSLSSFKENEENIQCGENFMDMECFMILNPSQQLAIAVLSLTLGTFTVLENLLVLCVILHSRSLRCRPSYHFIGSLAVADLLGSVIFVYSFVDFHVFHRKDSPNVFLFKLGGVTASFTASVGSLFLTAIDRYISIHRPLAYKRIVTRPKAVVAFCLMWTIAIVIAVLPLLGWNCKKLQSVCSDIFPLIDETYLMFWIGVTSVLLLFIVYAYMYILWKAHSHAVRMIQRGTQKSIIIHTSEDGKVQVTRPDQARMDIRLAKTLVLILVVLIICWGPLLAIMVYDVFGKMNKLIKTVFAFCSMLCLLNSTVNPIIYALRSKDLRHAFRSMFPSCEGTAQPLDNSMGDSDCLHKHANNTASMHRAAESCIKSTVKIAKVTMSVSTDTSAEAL

Columns and labels:
CB2 receptor (hCB2) = CB2 receptor (hCB2) (Homo sapiens, UniProt P34972); experiment: cAMP assay (inhibition of FSK stimulated cAMP), CB2; type: cell-based; settings: read-out: EC50 (cAMP) CB2 receptor; class symbols
Protocol: FIG. 2A is a graph providing data of the % inhibition of FSK stimulated cAMP for compound 6.1.1 for hCB2.
Further functional characterization of some of the disclosed compounds tested initially for “binding affinity” or for GTPγ-S binding was performed by using the cyclic adenosine monophosphate (cAMP) assay. Key compounds initially characterized functionally using the GTPγ-S assay were also doubly tested using the cAMP assay to unambiguously confirm their functional profiles. The functional potency of the compounds tested using the cyclase assay is also represented by the EC50 (cAMP) value and similarly the lower the EC50 (cAMP) value the higher the potency of the compound for the receptor. A detailed description of the methods used to test compounds using the cAMP assay is given in Yingpeng, et al. J. Med. Chem. (2018) 61, 8639-8657 the content of which is hereby incorporated by reference. The EC50 values (potency of a test compound) of the functional assays may or may not be accompanied by the E(max) value in tables 1-5 (efficacy of the test compound). E(max)/efficacy is the maximum GTP stimulation or cAMP inhibition levels and is presented as the percentage of maximum response evoked by a standard CB1/CB2 full agonist (e.g., CP-55,940) for reference see the paper cited above. […]

CB1 receptor (rCB1) = CB1 receptor (rCB1) (Rattus norvegicus, UniProt P20272); experiment: cAMP assay (inhibition of FSK stimulated cAMP), CB1; type: cell-based; settings: read-out: EC50 (cAMP) CB1 receptor; class symbols

## C[C@H](/C=C\C/C=C\C/C=C\CCCC(=O)OC(CO)CO)/C=C\CCCCCC#N
CB2 receptor (hCB2)
  pEC50: 6.70 to 8.00
CB1 receptor (rCB1)
  pEC50: 6.70 to 8.00

pEC50: −log10 of the molar value. The structures given here were assigned with low confidence; some may be wrong.
